These are yes or no findings as the source states them, for the method shown. In cells and extracts the contact can be indirect. Some entries that bind do so weakly or less than the wild type.

The target in the assay is Wilms' tumor gene 1 protein (WT1), endogenous in K562 cells (human (endogenous in K562)) (UniProt P19544). Put plainly: co-IP; nuclear extracts of K562 cells, endogenous proteins; IP with anti-WT1 in 1 × Low IP buffer, wash with 1 × Low Wash buffer without DTT or NaCl (lower stringency); immunoblot with anti-NAB2; Sepharose only as negative control.

B1: NAB2 (NGFI-A Binding Protein 2), endogenous in K562 cells (protein, UniProt Q15742-1 1-525)
chain: MHRAPSPTAEQPPGGGDSARRTLQPRLKPSARAMALPRTLGELQLYRVLQRANLLSYYETFIQQGGDDVQQLCEAGEEEFLEIMALVGMATKPLHVRRLQKALREWATNPGLFSQPVPAVPVSSIPLFKISETAGTRKGSMSNGHGSPGEKAGSARSFSPKSPLELGEKLSPLPGGPGAGDPRIWPGRSTPESDVGAGGEEEAGSPPFSPPAGGGVPEGTGAGGLAAGGTGGGPDRLEPEMVRMVVESVERIFRSFPRGDAGEVTSLLKLNKKLARSVGHIFEMDDNDSQKEEEIRKYSIIYGRFDSKRREGKQLSLHELTINEAAAQFCMRDNTLLLRRVELFSLSRQVARESTYLSSLKGSRLHPEELGGPPLKKLKQEVGEQSHPEIQQPPPGPESYVPPYRPSLEEDSASLSGESLDGHLQAVGSCPRLTPPPADLPLALPAHGLWSRHILQQTLMDEGLRLARLVSHDRVGRLSPCVPAKPPLAEFEEGLLDRCPAPGPHPALVEGRRSSVKVEAEASRQ
For B1, the binding result is on record as “binds”.

For the origin of these results see PMC5675621.
